US4470971A, “Renin inhibitory peptides having His^13” (Merck & Co., Inc., priority 1982, dated 1984)
Part of at least one peptide drawing is inferred or uncertain, most often the ends. Where a SMILES comes first, the peptide text is derived from it. [ ]: non-standard residue; d: D form. The star is where a group is joined. Sta = CC(C)C[C@H](N)[C@@H](O)CC(=O)O; Isovaleryl = CC(C)CC(=O)*; Isobutyryl = CC(C)C(=O)*

Assays:
Pig renin = assay: pig renin inhibition assay (Rich et al.); type: biochemical; conditions: read-out: I50 (M) Pig renin
[1] = system: aspartyl proteases such as pepsin, cathepsin D, and renin; conditions: other acid proteases; cited from earlier work
hog renin = conditions: after injection of hog renin into nephrectomized rats; cited from earlier work

SMILES: CC(C)C[C@H](NC(=O)[C@H](Cc1c[nH]cn1)NC(=O)[C@H](Cc1ccccc1)NC(=O)[C@@H]1CCCN1C(=O)[C@H](Cc1c[nH]cn1)NC(=O)C(C)C)[C@@H](O)CC(=O)N[C@H](C(=O)N[C@@H](Cc1c[nH]cn1)C(=O)NCC(N)=O)C(C)C [N-Isobutyryl-L-histidyl-L-prolyl-L-phenylalanyl-L-histidyl-(3S,4S)-statyl-L-valyl-L-histidyl-L-glycyl amide] (Isobutyryl-HPFH[Sta]VHG-NH2)
- IC50 (Pig renin): 5.4e-07 M

SMILES: CC(C)CC(=O)N[C@H](C(=O)N[C@H](C(=O)N[C@@H](CC(C)C)[C@@H](O)CC(=O)N[C@@H](C)C(=O)N[C@@H](CC(C)C)[C@@H](O)CC(=O)O)C(C)C)C(C)C [Pepstatin, iso-valeryl-Val--Val--Sta--Ala--Sta] (Isovaleryl-VV[Sta]A[Sta]-OH)
- inhibition of aspartyl proteases [1]: inhibitor of aspartyl proteases such as pepsin, cathepsin D, and renin
- blood pressure in vivo (hog renin): reduce blood pressure in vivo

SMILES: CC[C@H](C)[C@H](NC(=O)C[C@H](O)[C@H](CC(C)C)NC(=O)[C@H](Cc1c[nH]cn1)NC(=O)[C@H](Cc1ccccc1)NC(=O)[C@@H]1CCCN1C(=O)[C@H](Cc1c[nH]cn1)NC(=O)CC(C)C)C(=O)N[C@@H](Cc1c[nH]cn1)C(N)=O [iso-Valeryl-His-Pro-Phe-His-Sta-Ile-His-NH2] (Isovaleryl-HPFH[Sta]IH-NH2)
- IC50 (Pig renin): 9.3e-07 M
